Measurements taken from PubChem BioAssay AID256 (DTP/NCI, 2004).
The list does not hold the whole screen: it gathers tests that were run many times, whatever their T/C, doses with no T/C, and many T/C values between a quarter and a half above the control. Further doses and runs are listed elsewhere. T/C: endpoint of the treated group in % of that of the vehicle group. Some entries give survivors of the animals treated and no T/C: the source files T/C as zero there, which appears to mark a toxic dose or a test without result, not a measured value. Some survivor counts are full or nearly so, which does not show that the dose was tolerated: survival well below the control is almost never listed, so the zero probably covers shortened survival too. Counts of survivors are from the toxicity check (mostly the fifth day) where no day follows; animals may have died later. Schedule codes are those of the source, taken here to give the interval after Q, in days (D) or hours (H), and the number of doses after X. Where survival is the endpoint, the PubChem record calls one and a half times the control and up active, and a quarter to a half above the control has no call in these data; cut-offs in other NCI protocols can differ. Some entries were tested several times; their values stand side by side, smallest first.

System: CD2F1 mice, L1210 leukemia ip, survival T/C
Experiment: NCI In Vivo Anticancer Drug Screen. Data for tumor model L1210 Leukemia (intraperitoneal) in CD2F1 (CDF1) mice
Details: higher T/C = longer survival
Method in brief: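 Ratio T/C, where T is the treated-group value and C the vehicle-dosed control value, from mice implanted with a transplantable tumor.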

[1] = T/C endpoint: mean survival time, dose: 200.0 mg/kg/injection, schedule: Q01DX009 (ip), vehicle: saline with Tween-80
[2] = T/C endpoint: mean survival time, dose: 400.0 mg/kg/injection, schedule: Q01DX009 (ip), vehicle: saline with Tween-80
[3] = T/C endpoint: mean survival time, dose: 400.0 mg/kg/injection, schedule: Q01DX001 (ip), vehicle: saline

`O=C(CCCCCCCCC(=O)OO)OO` (tested in a mixture with another compound) was tested, and the survivor count [1] was 1 of 6 and the survivor count [2] was 0 of 6.

`Nc1cc(N)nc(N)n1` was tested, and the survivor count (T/C endpoint: mean survival time, dose: 400.0 mg/kg/injection, schedule: Q01DX001 (ip), vehicle: saline with Tween-80) was 0 of 6.

In the case of `COc1cc2c(cc1OCc1ccccc1)NC(=O)C2`, the survivor count (T/C endpoint: mean survival time, dose: 200.0 mg/kg/injection, schedule: Q01DX001 (ip), vehicle: saline with Tween-80) is reported as 6 of 6.

For `CCOCCN1CCN(CCCN2c3ccccc3Sc3ccc(C(F)(F)F)cc32)CC1`, the T/C (T/C endpoint: mean survival time, dose: 50.0 mg/kg/injection, schedule: Q04DX003 (ip), vehicle: saline) was 132 % of control and the survivor count (T/C endpoint: mean survival time, dose: 75.0 mg/kg/injection, schedule: Q04DX003 (ip), vehicle: saline) was 2 of 6.

In the case of `C1CCC(N=C(NC2CCCCC2)NC2CCCCC2)CC1`, the survivor count (T/C endpoint: mean survival time, dose: 400.0 mg/kg/injection, schedule: Q04DX003 (ip), vehicle: saline with Tween-80) is reported as 0 of 3.

In the case of `CC[C@H](C)c1occ2c(O)c(C(=O)O)c(=O)cc-2c1C`, the survivor count [3] is reported as 2 of 6.

In the case of `Clc1nc2ccccc2nc1CI`, the survivor count (T/C endpoint: mean survival time, dose: 200.0 mg/kg/injection, schedule: Q04DX003 (ip), vehicle: acetone) is reported as 0 of 6 and the survivor count (T/C endpoint: mean survival time, dose: 400.0 mg/kg/injection, schedule: Q04DX003 (ip), vehicle: acetone) is reported as 0 of 6.

In the case of `CCCCCCCCCCCCCCCCCCN1CCOCC1`, the survivor count (T/C endpoint: mean survival time, dose: 100.0 mg/kg/injection, schedule: Q01DX009 (ip), vehicle: saline with Tween-80) is reported as 1 of 6, the survivor count [1] is reported as 2 of 6 and the survivor count [2] is reported as 0 of 6.

With `O=C1CCc2c1cc(O)c1ccc(S(=O)(=O)O)cc21` the survivor count (T/C endpoint: mean survival time, dose: 100.0 mg/kg/injection, schedule: Q01DX001 (ip), vehicle: saline) was 3 of 6, the survivor count (T/C endpoint: mean survival time, dose: 200.0 mg/kg/injection, schedule: Q01DX001 (ip), vehicle: saline) was 0 of 6 and the survivor count [3] was 0 of 6.

`CN(C)c1ccc2c(SCC(=O)OCC(=O)[C@@]3(O)CC[C@H]4[C@@H]5CCC6=CC(=O)C=C[C@]6(C)[C@H]5C(=O)C[C@@]43C)c3ccc(N(C)C)cc3nc2c1` was tested, and the T/C (T/C endpoint: median survival time, dose: 200.0 mg/kg/injection, schedule: Q01DX009 (ip), vehicle: Klucel (hydroxypropylcellulose) (HPC)) was 126 and 132 % of control and the survivor count (T/C endpoint: median survival time, dose: 400.0 mg/kg/injection, schedule: Q01DX009 (ip), vehicle: Klucel (hydroxypropylcellulose) (HPC)) was 2 of 6.
